Laboratory results: PubChem BioAssay AID1347076 (National Center for Advancing Translational Sciences (NCATS), 2019)
The campaign covered roughly 400,000 compounds. About 13,000 (3.2%) were called active. The inconclusive results got no clear call from the source; some entries with a clear call stand among them for comparison. The call rests on the fitted dose curve; in most records, active means well fitted cell-killing curve with a large enough effect; inconclusive means small, poorly fitted or top-dose-only effect, or effect the other way; inactive means flat fitted curve, though single readings scatter. Potencies of inconclusive entries are doubtful fits and often do not repeat.

Test: qHTS assay for MDR1-selective chemotherapeutics: Primary screen using the drug-selected MDR subline cells KB-V1; further: nearly all actives have a fitted effect of over 60% in size
Details: KB-V1 MDR cells viability, CellTiter-Glo, 72 h; activity change, negative = cytotoxicity: at 46.1 µM (top of the series)
In short: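 Drug-selected KB-V1 cells, grown in DMEM lacking phenol red with 10% FBS, receive compound titrations; after three days at 37 degrees C, surviving cell ATP is quantified by CellTiter-Glo luminescence and responses normalized and curve-fitted.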
On the % scale 0 is the no-effect control and ±100 the full control effect; potency means the concentration at half of the fitted maximal effect.

Compound | Potency | activity change, negative = cytotoxicity
O=C(Nc1ccccc1N1CCOCC1)c1cc2c(s1)CCCCC2 | inconclusive: 9.2 µM [cytotoxic, partial curve] | –
c1ccc(-c2nnc3sc(CN4CCc5ccccc54)cn23)cc1 | inconclusive: 6.51 µM [cytotoxic, partial curve] | –
Cc1cccc(N(CC(=O)NC(C)(C)C)C(=O)CCC(=O)Nc2nccs2)c1 | inconclusive: 29.1 µM [cytotoxic, single point] | –
COc1ccc(C)cc1NC(=O)N1CCC(CO)(CC2CCCCO2)CC1 (stereo unspecified) | inconclusive: 29.1 µM [cytotoxic, single point] | –
O=C1CC(c2cc(-c3ccccc3)no2)C1 | inactive | –
COC(=O)[C@@]12C[C@@H](CC(=O)N3CCSCC3)C(=O)N(Cc3ccco3)C1=CCC(C)(C)C2 | inconclusive: 1.3 µM [cytotoxic, full curve] | –
O=C(NCCc1ccccc1)c1ccc2nc(-c3ccco3)c(-c3ccco3)nc2c1 | inconclusive: 29.1 µM [cytotoxic, single point] | –
CC(NC(=O)c1c(O)nc2ccccn2c1=O)c1ccccc1 (stereo unspecified) | inconclusive: 9.2 µM [cytotoxic, partial curve, poor fit] | –
CCOCCCn1c(SCC(=O)Nc2ccccc2OC)nc2c(oc3ccccc32)c1=O | inactive | –
Cc1ccc(Cn2ncc3c(N4CCN(CCc5ccccc5)CC4)ncnc32)cc1 | inconclusive: 32.6 µM [cytotoxic, single point] | –
O=C(N/N=C/c1cc(O)ccc1Br)c1cccnc1 | inactive | –
O=C(Nc1ccccc1N1CCOCC1)c1cccc(Oc2ccccc2)c1 | inconclusive: 18.4 µM [cytotoxic, single point] | –
O=C(COC(=O)c1cc(-c2cccs2)nc2ccccc12)c1ccc(Cl)cc1 | inconclusive: 29.1 µM [cytotoxic, single point] | –
Cc1ccc(NS(=O)(=O)c2cc(NC(=O)c3ccc4c(c3)NC(=O)CS4)ccc2Cl)c(C)c1 | inconclusive: 18.4 µM [cytotoxic, single point] | –
O=C(CSc1nnc(-c2ccccc2)n1Cc1ccccc1)NNC(=O)c1ccccc1O | inactive | –
CCOC(=O)C1CCCN(C(=O)c2ccc(Cl)c(S(=O)(=O)N3CCc4ccccc43)c2)C1 (stereo unspecified) | inconclusive: 0.92 µM [rising, full curve] | –
COc1cccc(CN2CCN(S(=O)(=O)c3ccc(NC(C)=O)cc3)CC2)c1OC | inconclusive: 18.4 µM [cytotoxic, single point] | –
CCOc1ccc(NC(=O)CSc2nc3ccccc3c(=O)n2CCC(=O)NC2CCCCC2)cc1 | inactive | –
O=C(N/N=C/c1cc2ccccc2[nH]1)c1ccccc1Cl | – | inconclusive: -31.8% [cytotoxic]
COc1cc(OC)nc(Nc2nc(C(N)c3ccccc3Cl)cs2)n1 (stereo unspecified) | inconclusive: 25.9 µM [cytotoxic, single point] | –
CSc1nc2c(c(=O)[nH]c(=O)n2C)n1Cc1ccccc1 | inconclusive: 29.1 µM [cytotoxic, single point] | –
CCOc1ccc2nc(N(CCCN(C)C)C(=O)c3ccc4c(c3)CCCC4)sc2c1 | inactive | –
COCC(C)NC(=O)CCc1nnc(C2(c3ccc(Cl)cc3)CCC2)o1 (stereo unspecified) | inactive | –

Fetched one by one from the list above (2):
Compound | Potency | activity change, negative = cytotoxicity
COC(=O)[C@@]12C[C@@H](CC(=O)N3CCSCC3)C(=O)N(Cc3ccco3)C1=CCC(C)(C)C2 | inconclusive: 1.3 µM [cytotoxic, full curve] | –
O=C(N/N=C/c1cc(O)ccc1Br)c1cccnc1 | inactive | –

Next part:

Compound | Potency | activity change, negative = cytotoxicity
Cc1occc1-c1nnc(SCC(=O)O)n1-c1ccccc1 | inconclusive: 32.6 µM [rising, single point] | –
COc1ccc(CCNC(=O)c2cc([C@@H](NC(=O)OC(C)(C)C)C(C)C)sc2N)cc1OC | inconclusive: 8.2 µM [cytotoxic, partial curve] | –
CCCCOCCCNC(=O)C[C@@H]1C[C@@]2(C(=O)OC)CCCCC=C2N(CCc2ccc(OC)c(OC)c2)C1=O | inconclusive: 6.51 µM [cytotoxic, partial curve] | –
COc1ccccc1C(CNc1ncnc2sc(C)c(C)c12)N(C)C (stereo unspecified) | inactive | –
CC1(C(=O)NCc2ccccc2)Cc2c(-c3cccc(C(F)(F)F)c3)ccnc2O1 (stereo unspecified) | active: 6.51 µM | –
COc1cccc(C(=O)Nc2nc3ccc(S(C)(=O)=O)cc3s2)c1 | inactive | –
COc1ccccc1-c1cc(C(F)(F)F)nc(S(=O)(=O)CCCC(=O)O)n1 | inactive | –
CC1CCC(NC(=O)C2CCN(c3nc4ccccc4s3)CC2)CC1 (stereo unspecified) | active: 7.31 µM | –
COc1cccc(NS(=O)(=O)c2cc(-c3cnc(C4CC4)o3)ccc2C)c1 | active: 7.31 µM | –
Cc1ccc(NC(=O)CSc2nc(-c3ccco3)nc3cc(=O)[nH]n23)c(Cl)c1 | inconclusive: 13 µM [rising, partial curve] | –
CCc1ccc(N(CC(=O)NCc2ccc(F)cc2)C(=O)c2csnn2)cc1 | inactive | –
COc1cccc(NC(=O)COC(=O)c2ccccc2C(=O)N(C)c2ccccc2)c1 | active: 23.1 µM | –
CCCCC1CC(C)(C(=O)CSc2nc3ccccc3s2)OC1=O (stereo unspecified) | inactive | –
CCN(Cc1ccccc1)C(c1ccc(C(F)(F)F)cc1)c1nnnn1C(C)(C)C (stereo unspecified) | active: 20.6 µM | –
O=C(Nc1ccc(S(=O)(=O)Nc2ccccc2)cc1)C1CC1 | inactive | –
CCOC(=O)c1ccc(-c2ccc3ncnc(N(C)Cc4sccc4C)c3c2)o1 | inactive | –
O=C(CN1C(=O)C(=O)N(Cc2ccccc2)C1=O)Nc1ccc(OC(F)F)cc1 | inconclusive: 29.1 µM [cytotoxic, single point] | –
Cc1cc(C)c(NC(=O)CSc2nnc(SCC(=O)Nc3c(C)cc(C)cc3C)n2N)c(C)c1 | inactive | –
Cc1cccc(N2CCN(S(=O)(=O)c3c(C)nc4scc(C)n4c3=O)CC2C)c1 (stereo unspecified) | inconclusive: 29.1 µM [cytotoxic, single point] | –
COc1cccc(C(c2c(N)[nH]c(=S)[nH]c2=O)c2c(N)[nH]c(=S)[nH]c2=O)c1 | inactive | –
CCN(CC)C(=O)c1[nH]cnc1C(=O)N[C@@H](C)C(=O)OCc1ccccc1 | inconclusive: 18.4 µM [rising, single point] | –
COCCCNC(=S)Nc1cc2oc3ccccc3c2cc1OC | inconclusive: 7.31 µM [cytotoxic, partial curve, poor fit] | –
Cc1ccc(O)c(-c2cc(C(=O)Nc3ccc(S(=O)(=O)N4CC(C)OC(C)C4)cc3)[nH]n2)c1 (stereo unspecified) | inconclusive: 29.1 µM [cytotoxic, single point] | –
